The record followed here is patent US20040028607A1.

The chains behind the UniProt entries cited, without tags or fusion partners.
UniProt P68363: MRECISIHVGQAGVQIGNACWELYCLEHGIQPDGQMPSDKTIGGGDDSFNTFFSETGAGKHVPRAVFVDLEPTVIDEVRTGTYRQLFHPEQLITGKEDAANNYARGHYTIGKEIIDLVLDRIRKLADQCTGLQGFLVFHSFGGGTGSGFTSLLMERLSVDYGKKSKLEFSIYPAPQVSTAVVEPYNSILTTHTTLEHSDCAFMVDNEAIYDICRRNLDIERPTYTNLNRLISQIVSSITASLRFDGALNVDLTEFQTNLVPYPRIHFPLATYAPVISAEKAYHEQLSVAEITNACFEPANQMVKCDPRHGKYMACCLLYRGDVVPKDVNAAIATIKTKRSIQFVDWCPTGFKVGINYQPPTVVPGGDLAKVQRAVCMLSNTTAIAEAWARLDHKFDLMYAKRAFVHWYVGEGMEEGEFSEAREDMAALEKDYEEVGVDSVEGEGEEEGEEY

Results are given in words; binding and its absence hold for the method and conditions named. Some results given as binding are weak or reduced against the parent protein; the word gives no strength. Tags and fused reporters may be left off the sequences shown.

The assay concerns the target alpha-tubulin acetylated at lysine-40 (endogenous, in HeLa cells or HEK 293T cell lysate) (human (human cell lines)) (UniProt P68363). Briefly: confocal microscopy colocalisation in TSA-treated cells cotransfected with GFP-MIZ-1 and empty FLAG vector.

B1: GFP-MIZ-1 (GFP fusion of Myc-interacting zinc finger 1, expressed from pEGFPMIZ-1) (protein, not shown: large carriers)
chain: MDFPQHSQHVLEQLNQQRQLGLLCDCTFVVDGVHFKAHKAVLAACSEYFKMLFVDQKDVVHLDISNAAGLGQMLEFMYTAKLSLSPENVDDVLAVATFLQMQDIITACHALKSLAEPATSPGGNAEALATEGGDKRAKEEKVATSTLSRLEQAGRSTPIGPSRDLKEERGGQAQSAASGAEQTEKADAPREPPPVELKPDPTSGMAAAEAEAALSESSEQEMEVEPARKGEEEQKEQEEQEEEGAGPAEVKEEGSQLENGEAPEENENEESAGTDSGQELGSEARGLRSGTYGDRTESKAYGSVIHKCEDCGKEFTHTGNFKRHIRIHTGEKPFSCRECSKAFSDPAACKAHEKTHSPLKPYGCEECGKSYRLISLLNLHKKRHSGEARYRCEDCGKLFTTSGNLKRHQLVHSGEKPYQCDYCGRSFSDPTSKMRHLETHDTDKEHKCPHCDKKFNQVGNLKAHLKIHIADGPLKCRECGKQFTTSGNLKRHLRIHSGEKPYVCIHCQRQFADPGALQRHVRIHTGEKPCQCVMCGKAFTQASSLIAHVRQHTGEKPYVCERCGKRFVQSSQLANHIRHHDNIRPHKCSVCSKAFVNVGDLSKHIIIHTGEKPYLCDKCGRGFNRVDNLRSHVKTVHQGKAGIKILEPEEGSEVSVVTVDDMVTLATEALAATAVTQLTVVPVGAAVTADETEVLKAEISKAVKQVQEEDPNTHILYACDSCGDKFLDANSLAQHVRIHTAQALVMFQTDADFYQQYGPGGTWPAGQVLQAGELVFRPRDGAEGQPALAETSPTAPECPPPAE
As for B1, the binding entry was “binds”.
